Structures are written as SMILES. The list shows a part of the results. This data set is noisy: repeats of one test often differ as much as different tests do.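 Human embryonic kidney cells were transiently transfected with a plasmid bearing a Renilla luciferase gene under the HSV-TK promoter. This first-round screen tests roughly ten thousand compounds for ones that increase reporter output.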

The subject of the assay is HEK 293FT. In words: log relative Renilla luciferase luminescence (reporter expression vs reference, reference not stated) (log (base not stated)); higher = higher recombinant reporter expression. The conditions noted are these: 10 µM; time after transfection 48 h. The protocol: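 HEK 293FT cells transiently transfected with pRL-TK (Renilla luciferase) were treated with compounds at 10 uM and luminescence was read about 42 h later. Values are log relative Renilla luminescence (log base and reference not stated). Single-pass screen; 2080 natural products library.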
As for `CC1(C)O[C@H]2CC(=O)OC[C@]23[C@H]2CC[C@@]4(C)[C@H](C5=CC(=O)OC5O)OC(=O)[C@H]5O[C@]54[C@]2(C)C(=O)C[C@@H]13` (some centres not stated) [Limonexic acid], the log was 0.766.

With `COc1cc2oc(=O)ccc2cc1[C@H]1O[C@H](OC(C)=O)[C@]2(C)O[C@H]12` [Acetyldihydromicromelin A], the log was -0.0767.

With `C=C1CC[C@@H]2[C@](C)(CCC[C@]2(C)C(=O)O)[C@H]1CC[C@H](C)CCO` [Imbricatolic acid], the log is 0.0308.

Consider `COc1cc2ccc(=O)oc2c2c1OC(C)(C)C=C2` [Braylin], for which the log is -0.565.

For `CC(=O)O[C@@H]1C(=O)[C@]2(C)[C@H](CC[C@@]3(C)[C@H](c4ccoc4)OC(=O)[C@H]4O[C@]432)[C@@]23COC(=O)C[C@@H]2OC(C)(C)[C@@H]13` [Glaucin B], the log is -0.123.

In the case of `C=C(C(=O)O)[C@@H]1CC[C@@]2(C)CCCC(=C)[C@@]2(O)C1` [5beta-Hydroxycostic acid], the log was -0.042.

As for `C=CC(C)(C)c1c(OC)cc(O)c2c(=O)c3c(CC=C(C)C)c(O)c(O)cc3oc12` [Cudraxanthone D], the log is -0.824.

As to `CC1(C)[C@H](O)CC[C@@]2(C)[C@@H]3CC[C@](C)([C@@H](O)CO[C@@H]4O[C@H](CO)[C@@H](O)[C@H](O)[C@H]4O)C=C3CC[C@H]12` [Darutoside], the log is -0.144.

On to `COc1cc(-c2oc3c(OC)c(OC)c(OC)c(OC)c3c(=O)c2OC)cc(OC)c1OC` [Exoticin], for which the log was -0.227.

On to `COc1ccc(C2OCC3C(c4cc(OC)c(OC)c(OC)c4)OCC23)cc1OC` (configuration not stated) [Magnolin], for which the log turned out to be 0.218.

Regarding `CC(=O)O[C@H]1C[C@@H]2CC(=O)OC[C@@H]2[C@H]1C` [Isoboonein acetate], the log was -0.172.

On to `COc1cc(C[C@@H](CO)c2cc(/C=C/CO)cc(OC)c2O[C@@H]2O[C@H](CO)[C@@H](O)[C@H](O)[C@H]2O)ccc1O` [Icariside E5], for which the log was 0.0279.

Source of the values: the supplement of paper PMC7024190.
